PubChem BioAssay AID1259308 – NCATS | 2017

Aim: 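Knock-downs that increase output of a recombinant reporter protein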 (primary screen)
Cell system: human HEK293 embryonic kidney cells stably expressing firefly luciferase (HEK-CMV-Luc2-Hygro)
Reagents: single siRNA against human genes, 0.8 pmol siRNA per well
Timing: 72 h
Read-out: 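Luciferase light (ONE-Glo) measured on one replicate plate set and viability (CellTiter-Glo) on the other, scaled to a negative control siRNA, with robust z-scores and luciferase per cell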
Direction: total luciferase, z-score and total luciferase, % of control: higher = more reporter protein produced
Active means: 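An siRNA counts as active if its total luciferase robust z-score exceeds 3; genes with two or more such siRNAs out of three were retested with fresh siRNAs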
Calls: active = raised luciferase; inactive = no rise
The deposit covers about 59,000 reagents; this is a random part of them. About 1,510 of them (2.6%) count as active. 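Calls use total luciferase alone and ignore viability, so some active siRNAs may act by altering cell number.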 Reagents against one gene are numbered here. Not all columns of the deposit are shown.

| target | siRNA no. | total luciferase, z-score | total luciferase, % of control | Call |
| --- | --- | --- | --- | --- |
| RPL21P62 (GeneID 442160) | 1 | -1.34 | 55.2 | inactive |
| RPL21P62 (GeneID 442160) | 2 | -3.27 | 16.8 | inactive |
| RPL21P62 (GeneID 442160) | 3 | -2.88 | 24.6 | inactive |
| CRYBB1 (GeneID 1414) | 1 | -0.0449 | 81 | inactive |
| CRYBB1 (GeneID 1414) | 2 | -0.328 | 75.4 | inactive |
| CRYBB1 (GeneID 1414) | 3 | -1.12 | 59.7 | inactive |
| MTND5P10 (GeneID 643031) | 1 | -0.625 | 69.5 | inactive |
| MTND5P10 (GeneID 643031) | 2 | -0.291 | 76.1 | inactive |
| MTND5P10 (GeneID 643031) | 3 | 0.801 | 97.8 | inactive |
| CLBA1 (GeneID 122616) | 1 | 0.778 | 97.4 | inactive |
| CLBA1 (GeneID 122616) | 2 | 2.45 | 131 | inactive |
| CLBA1 (GeneID 122616) | 3 | 1.26 | 107 | inactive |
| BRI3 (GeneID 25798) | 1 | 0.218 | 86.2 | inactive |
| BRI3 (GeneID 25798) | 2 | -1.4 | 54.1 | inactive |
| BRI3 (GeneID 25798) | 3 | 0.555 | 92.9 | inactive |
| CHCHD2P6 (GeneID 645317) | 1 | 1.85 | 119 | inactive |
| CHCHD2P6 (GeneID 645317) | 2 | -1.12 | 59.5 | inactive |
| CHCHD2P6 (GeneID 645317) | 3 | 2.07 | 123 | inactive |
| YLPM1 (GeneID 56252) | 1 | -0.618 | 69.6 | inactive |
| YLPM1 (GeneID 56252) | 2 | 0.0565 | 83 | inactive |
| YLPM1 (GeneID 56252) | 3 | -0.391 | 74.1 | inactive |
| B2M (GeneID 567) | 1 | -1.41 | 53.8 | inactive |
| B2M (GeneID 567) | 2 | 0.762 | 97 | inactive |
| B2M (GeneID 567) | 3 | -0.126 | 79.4 | inactive |
| HTT (GeneID 3064) | 1 | -0.66 | 68.8 | inactive |
| HTT (GeneID 3064) | 2 | -2.03 | 41.5 | inactive |
| HTT (GeneID 3064) | 3 | 2.62 | 134 | inactive |
| MINDY4B (GeneID 646951) | 1 | -1.31 | 55.8 | inactive |
| MINDY4B (GeneID 646951) | 2 | -0.0224 | 81.4 | inactive |
| MINDY4B (GeneID 646951) | 3 | 2.57 | 133 | inactive |
| RPGRIP1L (GeneID 23322) | 1 | 1.04 | 103 | inactive |
| RPGRIP1L (GeneID 23322) | 2 | 0.279 | 87.4 | inactive |
| RPGRIP1L (GeneID 23322) | 3 | -0.409 | 73.8 | inactive |
| MTR (GeneID 4548) | 1 | -0.528 | 71.4 | inactive |
| MTR (GeneID 4548) | 2 | 0.223 | 86.3 | inactive |
| MTR (GeneID 4548) | 3 | 2.02 | 122 | inactive |
| ZNF35 (GeneID 7584) | 1 | 1.75 | 117 | inactive |
| ZNF35 (GeneID 7584) | 2 | -0.295 | 76 | inactive |
| ZNF35 (GeneID 7584) | 3 | -0.76 | 66.8 | inactive |

3 entries from above, arranged by “total luciferase, z-score”, high to low.
| target | siRNA no. | total luciferase, z-score | total luciferase, % of control | Call |
| --- | --- | --- | --- | --- |
| HTT (GeneID 3064) | 3 | 2.62 | 134 | inactive |
| MINDY4B (GeneID 646951) | 1 | -1.31 | 55.8 | inactive |
| HTT (GeneID 3064) | 2 | -2.03 | 41.5 | inactive |
